No constants are given. Whether binding was seen depends on the method and setting. Some results given as binding are weak or reduced against the parent protein; the word gives no strength.

Data on 5 molecules can be found in patent US20040176568A1 (GENERAL HOSPITAL, published 2004).

T1: human PTH-1 receptor (human, UniProt Q03431 27-593)
T1 sequence (looked up): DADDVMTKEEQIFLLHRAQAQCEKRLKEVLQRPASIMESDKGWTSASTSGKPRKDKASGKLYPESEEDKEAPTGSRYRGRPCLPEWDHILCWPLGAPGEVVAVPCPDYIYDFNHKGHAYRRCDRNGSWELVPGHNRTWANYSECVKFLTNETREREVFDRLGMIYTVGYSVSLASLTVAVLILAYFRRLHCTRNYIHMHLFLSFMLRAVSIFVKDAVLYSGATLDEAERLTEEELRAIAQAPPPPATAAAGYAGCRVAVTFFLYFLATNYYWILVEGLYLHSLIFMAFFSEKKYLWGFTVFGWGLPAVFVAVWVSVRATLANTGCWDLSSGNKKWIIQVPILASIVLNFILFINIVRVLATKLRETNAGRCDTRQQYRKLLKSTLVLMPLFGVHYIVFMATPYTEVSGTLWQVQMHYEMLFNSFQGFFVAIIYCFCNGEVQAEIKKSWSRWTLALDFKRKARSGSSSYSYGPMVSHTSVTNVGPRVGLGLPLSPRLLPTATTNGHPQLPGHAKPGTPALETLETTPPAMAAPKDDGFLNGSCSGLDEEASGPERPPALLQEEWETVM

B1: hPTH-(1-26) (peptide)
peptide: SVSEIQLMHNLGKHLNSMERVEWLRK
modifications: C-terminal amide
B2: hPTH-(1-25) (peptide)
peptide: SVSEIQLMHNLGKHLNSMERVEWLR
modifications: C-terminal amide
B3: hPTH-(1-24) (peptide)
peptide: SVSEIQLMHNLGKHLNSMERVEWL
modifications: C-terminal amide
B4: [Ala^1]hPTH-(1-34) (peptide)
peptide: AVSEIQLMHNLGKHLNSMERVEWLRKKLQDVHNY
modifications: chain 1: C-terminal amide
B5: hPTH-(1-27) (peptide)
peptide: SVSEIQLMHNLGKHLNSMERVEWLRKK
modifications: C-terminal amide

The target of this test is T1, human PTH-1 receptor. The test is described as follows: radioligand competition, HKRK B7 cells (human PTH-1 receptor). From the text:
Cell layers were washed three times before solubilization for determination of cell-associated radioactivity.
Regarding B1, the binding entry is reported as “no binding (tested: 1000 nM)”.
As to B2, the binding result is listed as “no binding (tested: 1000 nM)”.
With B3 the entry was “no binding (tested: 1000 nM)”.
With B4 the entry was “binds”; with B5, “no binding (tested: 1000 nM)”.
